In the experiment the test system is L1210 leukemia ip in BDF1 mice, survival T/C. Briefly: NCI In Vivo Anticancer Drug Screen. Data for tumor model L1210 Leukemia (intraperitoneal) in B6D2F1 (BDF1) mice. Particulars: T/C endpoint: mean survival time, higher T/C = longer survival.
Where [1] appears, read: dose: 200.0 mg/kg/injection, schedule: Q01DX001 (ip), vehicle: saline.
Where [2] appears, read: dose: 400.0 mg/kg/injection, schedule: Q01DX001 (ip), vehicle: saline.
The mark [3] stands for this setting: dose: 400.0 mg/kg/injection, schedule: Q04DX003 (ip), vehicle: saline with Tween-80.
Where [4] appears, read: dose: 100.0 mg/kg/injection, schedule: Q04DX003 (ip), vehicle: saline with Tween-80.
[5] abbreviates: dose: 200.0 mg/kg/injection, schedule: Q04DX003 (ip), vehicle: saline with Tween-80.

Structures are written as SMILES. The list does not hold the whole screen: it gathers tests that were run many times, whatever their T/C, doses with no T/C, and many T/C values between a quarter and a half above the control. Further doses and runs are listed elsewhere. T/C gives the treated animals as a percentage of the vehicle group. Some doses have a count of surviving animals in place of a T/C: the source holds a T/C of zero for them, seemingly a mark for toxic or unscored doses. Some survivor counts are full or nearly so, which does not show that the dose was tolerated: the source hardly ever lists a survival T/C far under the control, and the zero likely stands for such cases as well. Survivors were counted at the toxicity check, usually on the fifth day, unless a day is given; later deaths do not show. Schedules are NCI's codes, taken here to give the interval after Q, in days (D) or hours (H), and the number of doses after X. Some schedules carry Z or #; the key to these is not given. Some molecules as drawn cover several salts, stereoisomers or complexes of the source; a dose is that of the sample tested. Some entries hold several experiments; the results are listed from low to high. Where survival is the endpoint, the PubChem record calls one and a half times the control and up active, and a quarter to a half above the control has no call in these data; cut-offs in other NCI protocols can differ. Some T/C values carry the count of animals alive at the toxicity check (mostly the fifth day); where none is given, no animal had died by that day.

Survivor count and T/C data for 24 molecules are collected here from PubChem BioAssay AID248 (DTP/NCI, 2004).

As for `ClC1CCC(Cl)C2CCC3C(Cl)CCC1[S+]23` (configuration not stated), the survivor count runs as follows: (dose: 75.0 mg/kg/injection, schedule: Q01DX009 (ip), vehicle: Klucel (hydroxypropylcellulose) (HPC)) 0 of 6; (dose: 150.0 mg/kg/injection, schedule: Q01DX009 (ip), vehicle: Klucel (hydroxypropylcellulose) (HPC)) 0 of 6; (dose: 300.0 mg/kg/injection, schedule: Q01DX009 (ip), vehicle: Klucel (hydroxypropylcellulose) (HPC)) 0 of 6.

Turning to `Clc1ccccc1/C=C1\c2ccc(Br)cc2-c2cccc[n+]21`, the survivor count is 1 of 6 (dose: 150.0 mg/kg/injection, schedule: Q01DX001 (ip), vehicle: other) and 0 of 6 (dose: 300.0 mg/kg/injection, schedule: Q01DX001 (ip), vehicle: other).

Take `NC(Cc1cc([N+](=O)[O-])ccc1CN(CCCl)CCCl)C(=O)O` (configuration not stated): the T/C reads like this: (dose: 2.16 mg/kg/injection, schedule: Q04DX003 (ip), vehicle: saline) 136 % of control; (dose: 3.6 mg/kg/injection, schedule: Q01DX001 (ip), vehicle: saline) 130 % of control; (dose: 3.6 mg/kg/injection, schedule: Q04DX003 (ip), vehicle: saline) 137 % of control; (dose: 6.0 mg/kg/injection, schedule: Q01DX001 (ip), vehicle: saline) 135 % of control. Moreover, the survivor count (dose: 27.8 mg/kg/injection, schedule: Q01DX001 (ip), vehicle: saline) is reported as 5 of 8.

Regarding `COc1ccccc1C[N+](C)(C)C`, the survivor count by setting is: (dose: 80.0 mg/kg/injection, schedule: Q01DX009 (ip), vehicle: saline) 3 of 6; (dose: 100.0 mg/kg/injection, schedule: Q01DX001 (ip), vehicle: saline) 1 of 6; under setting [1], 0 of 6; under setting [2], 0 of 6.

As to `CC1CN=C(c2ccc(NC(=O)c3cccc(C(=O)Nc4ccc(C5=NCC(C)N5)cc4)c3)cc2)N1` (configuration not stated), the T/C runs as follows: (dose: 16.4 mg/kg/injection, schedule: Q01DX Z (ip), vehicle: carboxymethylcellulose (CMC)) 125 and 136 % of control; (dose: 25.0 mg/kg/injection, schedule: Q01DX Z (ip), vehicle: carboxymethylcellulose (CMC)) 134 and 148 % of control; (dose: 37.0 mg/kg/injection, schedule: Q01DX Z (ip), vehicle: carboxymethylcellulose (CMC)) 143 % of control. Moreover, the survivor count by setting is: (dose: 55.5 mg/kg/injection, schedule: Q01DX Z (ip), vehicle: carboxymethylcellulose (CMC)) 0 of 6; (dose: 60.0 mg/kg/injection, schedule: Q01DX Z (ip), vehicle: carboxymethylcellulose (CMC)) 6 of 6; (dose: 83.3 mg/kg/injection, schedule: Q01DX Z (ip), vehicle: carboxymethylcellulose (CMC)) 6 of 6; (dose: 125.0 mg/kg/injection, schedule: Q01DX Z (ip), vehicle: carboxymethylcellulose (CMC)) 0 of 6; (dose: 187.5 mg/kg/injection, schedule: Q01DX Z (ip), vehicle: carboxymethylcellulose (CMC)) 0 of 6; (dose: 400.0 mg/kg/injection, schedule: Q## X010 (oral), vehicle: saline) 6 of 6.

For `Cc1cccc(NC(=O)OC/C=C/c2ccccc2)c1`, the survivor count (dose: 400.0 mg/kg/injection, schedule: Q01DX009 (ip), vehicle: saline with Tween-80) is 3 of 3.

For `NC1CC(C(=O)O)CCC1S` (configuration not stated), the survivor count is, setting by setting: (dose: 25.0 mg/kg/injection, schedule: Q04DX002 (ip), vehicle: saline) 3 of 3; (dose: 200.0 mg/kg/injection, schedule: Q04DX002 (ip), vehicle: other) 0 of 3.

In the case of `O=C(N/N=C/c1ccc(Cl)c(Cl)c1)c1cccc2ccccc12`, under setting [1], the survivor count is 4 of 4.

As for `COc1ccc2c(c1O)C13CCN(C)C(C2)C1CCC1(C3)OCCO1` (configuration not stated), under “dose: 400.0 mg/kg/injection, schedule: Q01DX009 (ip), vehicle: saline”, the survivor count is given as 0 of 6.

Take `O=C1OC2CCC3C1C3C2Br` (configuration not stated): the survivor count reads like this: (dose: 50.0 mg/kg/injection, schedule: Q01DX009 (ip), vehicle: acetone) 5 of 6; (dose: 100.0 mg/kg/injection, schedule: Q01DX009 (ip), vehicle: acetone) 0 of 6.

With `CN(CCC#N)C1=CCCCCC1`, the survivor count under setting [2] is 2 of 6.

With `CCC1COC(Nc2cccc3c2CCCC3)=N1` (configuration not stated), the survivor count under setting [3] is listed as 4 of 6.

Regarding `O/C(=C\C(=S)S)c1ccc(Cl)cc1`, the survivor count runs as follows: (dose: 4.0 mg/kg/injection, schedule: Q01DX009 (ip), vehicle: saline with Tween-80) 3 of 6; (dose: 12.5 mg/kg/injection, schedule: Q04DX003 (ip), vehicle: saline with Tween-80) 3 of 6; (dose: 25.0 mg/kg/injection, schedule: Q04DX003 (ip), vehicle: saline with Tween-80) 1 of 6; (dose: 50.0 mg/kg/injection, schedule: Q04DX003 (ip), vehicle: saline with Tween-80) 0 of 6; under setting [4], 0 of 6; under setting [5], 0 of 6. In addition, the survivor count under setting [3] is given as 0 of 6.

Regarding `CC(=O)Nc1cc2c(cc1Br)-c1ccc(F)cc1C2`, the survivor count (dose: 1600.0 mg/kg/injection, schedule: Q01DX Z (ip), vehicle: saline) was 1 of 6.

For `O=C(Nc1ccc([N+](=O)[O-])cn1)Nc1cc([N+](=O)[O-])ccc1F`, the survivor count runs as follows: (dose: 100.0 mg/kg/injection, schedule: Q04DX003 (ip), vehicle: Klucel (hydroxypropylcellulose) (HPC)) 6 of 6; (dose: 400.0 mg/kg/injection, schedule: Q01DX009 (ip), vehicle: Klucel (hydroxypropylcellulose) (HPC)) 3 of 3.

Take `Cc1ccc(S(=O)(=O)N(C)c2cc(Cl)c(I)cc2Cl)cc1`: the survivor count (dose: 200.0 mg/kg/injection, schedule: Q04DX003 (ip), vehicle: Klucel (hydroxypropylcellulose) (HPC)) is 6 of 6.

As for `CCCC(C(=O)OCCN1CCCC12CCCCC2)C1CCCC1` (configuration not stated), the survivor count (dose: 45.0 mg/kg/injection, schedule: Q01DX Z (ip), vehicle: methylcellulose (MC)) is recorded as 6 of 6.

On to `S=P(S)(Oc1ccc(Cl)cc1Cl)Oc1ccc(Cl)cc1Cl.[Cd]`, for which the survivor count (dose: 100.0 mg/kg/injection, schedule: Q04DX002 (ip), vehicle: saline with Tween-80) was 1 of 3; the survivor count (dose: 200.0 mg/kg/injection, schedule: Q04DX002 (ip), vehicle: saline with Tween-80) is 0 of 3; the survivor count (dose: 400.0 mg/kg/injection, schedule: Q04DX002 (ip), vehicle: saline with Tween-80) is reported as 0 of 3.

As to `[N-]=[N+]=CC(=O)CCC(=O)C=[N+]=[N-]`, for the setting “dose: 3.0 mg/kg/injection, schedule: Q01DX009 (ip), vehicle: other”, the T/C is 148 % of control [5 of 6 alive].

As for `CCCCCCCCCCNCCC(=O)O`, the survivor count (dose: 150.0 mg/kg/injection, schedule: Q01DX009 (ip), vehicle: saline) was 2 of 6 and 3 of 6; the survivor count under setting [1] was 2 of 6; the survivor count (dose: 225.0 mg/kg/injection, schedule: Q01DX009 (ip), vehicle: saline) is recorded as 0 of 6; the survivor count (dose: 300.0 mg/kg/injection, schedule: Q01DX001 (ip), vehicle: saline) is listed as 0 of 6; the survivor count (dose: 335.0 mg/kg/injection, schedule: Q01DX009 (ip), vehicle: saline) is 0 of 6; the survivor count under setting [2] was 1 of 6.

Take `C/C=C/C(=O)Nc1cccc(OC(=O)NC(C)(C)C)c1`: the survivor count (dose: 200.0 mg/kg/injection, schedule: Q01DX009 (ip), vehicle: saline with Tween-80) is recorded as 6 of 6.

Regarding `CCOC(=O)C(Cl)CCl` (configuration not stated), the survivor count (dose: 400.0 mg/kg/injection, schedule: Q04DX003 (ip), vehicle: Klucel (hydroxypropylcellulose) (HPC)) is reported as 4 of 6.

For `CC(C)C(NC1=NCCO1)c1ccccc1` (configuration not stated), the survivor count under setting [4] was 6 of 6, the survivor count under setting [5] is reported as 0 of 6 and the survivor count under setting [3] is 0 of 6.

`NC(CS(=O)(=O)O)=NCC12CC3CC(CC(C3)C1)C2`: the survivor count is, setting by setting: (dose: 100.0 mg/kg/injection, schedule: Q04DX002 (ip), vehicle: Klucel (hydroxypropylcellulose) (HPC)) 0 of 3; (dose: 200.0 mg/kg/injection, schedule: Q04DX002 (ip), vehicle: Klucel (hydroxypropylcellulose) (HPC)) 0 of 3; (dose: 400.0 mg/kg/injection, schedule: Q04DX002 (ip), vehicle: Klucel (hydroxypropylcellulose) (HPC)) 0 of 3.
